Test results taken from paper PMC10067857.
These are yes or no findings as the source states them, for the method shown. Binding seen in cells or lysates may run through a third protein. Some results given as binding are weak or reduced against the parent protein; the word gives no strength.

By UniProt entry, the sequences of proteins in these tests, tags left out.
UniProt Q9Y572: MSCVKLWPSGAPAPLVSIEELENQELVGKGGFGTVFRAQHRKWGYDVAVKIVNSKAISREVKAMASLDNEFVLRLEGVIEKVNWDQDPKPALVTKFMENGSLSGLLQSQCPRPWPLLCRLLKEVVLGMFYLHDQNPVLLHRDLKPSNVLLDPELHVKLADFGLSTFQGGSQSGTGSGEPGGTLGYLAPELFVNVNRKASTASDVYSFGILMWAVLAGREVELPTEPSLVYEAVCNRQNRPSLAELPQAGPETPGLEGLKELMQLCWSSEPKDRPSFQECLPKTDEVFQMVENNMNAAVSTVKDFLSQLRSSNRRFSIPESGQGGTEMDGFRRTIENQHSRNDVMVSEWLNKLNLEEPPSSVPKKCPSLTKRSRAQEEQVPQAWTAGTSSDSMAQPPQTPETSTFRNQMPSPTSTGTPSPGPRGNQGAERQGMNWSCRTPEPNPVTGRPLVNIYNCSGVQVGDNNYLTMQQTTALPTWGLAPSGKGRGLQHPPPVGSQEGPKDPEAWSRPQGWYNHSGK
UniProt Q99873: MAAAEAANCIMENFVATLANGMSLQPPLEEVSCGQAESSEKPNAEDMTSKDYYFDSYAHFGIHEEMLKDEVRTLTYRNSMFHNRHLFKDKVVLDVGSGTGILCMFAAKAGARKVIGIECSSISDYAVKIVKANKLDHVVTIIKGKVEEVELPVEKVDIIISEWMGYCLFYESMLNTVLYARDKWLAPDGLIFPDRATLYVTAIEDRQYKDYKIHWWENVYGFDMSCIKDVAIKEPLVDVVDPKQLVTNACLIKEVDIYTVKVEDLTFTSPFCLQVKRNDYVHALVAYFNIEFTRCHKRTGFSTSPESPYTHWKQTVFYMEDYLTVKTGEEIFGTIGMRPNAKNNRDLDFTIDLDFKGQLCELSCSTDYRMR

Biological target: RIP3 (receptor interacting protein kinase 3), endogenous in HT29 cells (human (endogenous in HT29)) (UniProt Q9Y572)
Experiment: co-IP; endogenous proteins in HT29 cells; lysis in RIPA buffer, primary antibody overnight at 4 °C, protein A/G agarose beads, immunoblot

- binding: binds
Substance: PRMT1 methyltransferase, endogenous in HT29 cells (from UniProt Q99873 1-371) (enzyme)
